Assay results as given in publication PMC9677703.

Chains of the proteins cited; added tags and fusions are not shown. Lines headed by an entry give the natural chain unless they say otherwise; changes in a name come on top.
UniProt P61328: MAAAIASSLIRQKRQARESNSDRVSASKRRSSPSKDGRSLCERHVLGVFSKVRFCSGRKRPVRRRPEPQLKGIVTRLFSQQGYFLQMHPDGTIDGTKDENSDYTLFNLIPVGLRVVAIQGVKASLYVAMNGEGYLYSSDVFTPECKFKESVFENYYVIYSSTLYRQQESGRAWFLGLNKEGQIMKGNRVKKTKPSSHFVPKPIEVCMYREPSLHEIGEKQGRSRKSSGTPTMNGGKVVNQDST
UniProt Q14978: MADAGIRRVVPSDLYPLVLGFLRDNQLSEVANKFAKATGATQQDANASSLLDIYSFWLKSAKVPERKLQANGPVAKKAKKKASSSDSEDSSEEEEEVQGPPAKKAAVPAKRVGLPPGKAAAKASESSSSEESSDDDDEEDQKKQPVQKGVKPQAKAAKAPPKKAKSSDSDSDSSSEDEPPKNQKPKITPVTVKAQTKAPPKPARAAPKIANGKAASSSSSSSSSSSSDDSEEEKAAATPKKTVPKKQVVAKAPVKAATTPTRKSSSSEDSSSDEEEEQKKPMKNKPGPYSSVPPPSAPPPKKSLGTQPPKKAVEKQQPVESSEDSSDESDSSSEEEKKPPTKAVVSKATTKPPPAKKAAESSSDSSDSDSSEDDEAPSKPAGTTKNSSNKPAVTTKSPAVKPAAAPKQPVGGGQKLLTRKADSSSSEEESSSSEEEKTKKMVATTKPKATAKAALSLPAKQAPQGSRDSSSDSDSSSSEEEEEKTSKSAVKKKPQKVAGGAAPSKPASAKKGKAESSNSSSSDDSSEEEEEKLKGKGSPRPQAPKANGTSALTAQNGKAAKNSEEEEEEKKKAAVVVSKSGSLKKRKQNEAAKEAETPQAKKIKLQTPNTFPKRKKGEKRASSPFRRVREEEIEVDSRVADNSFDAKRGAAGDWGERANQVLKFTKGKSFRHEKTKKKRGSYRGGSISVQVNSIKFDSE

Target: FGF12Δ-His (131–181 FGF12 deletion mutant) (UniProt P61328)
Assay: pull-down; recombinant FGF12-His or FGF12Δ-His bound to Ni Sepharose (1 h, 4 °C), incubated with U2OS cell lysate (0.15 M KCl, 40 mM Tris, 1% NP-40, 1 mM EDTA, pH 7.2) overnight at 4 °C; western blotting; also with nuclease-treated lysate (no effect); only the target purified

binding: no binding
Substance: nucleolar and coiled-body phosphoprotein 1 (from UniProt Q14978 1-699)

No constants are given. Whether binding was seen depends on the method and setting. Binding seen in cells or lysates may run through a third protein.
